According to doi:10.1101/2024.08.16.608256 (bioRxiv, 2024):
These are yes or no findings as the source states them, for the method shown. Some binding calls cover weakened binding; strength is not graded here. For some of these results: Where a sequence is shown, tags or fusion partners need not be part of it. One block for each binder: values may come before it.

Columns and labels:
ΔTM-YqjD (E. coli) = ΔTM-YqjD (E. coli) (UniProt P64581); test: SDS-resistant dimer on SDS-PAGE with western blot
[1] = target: ElaB (N-terminal Xpress-His6-tag) (E. coli) (UniProt P0AEH5); test: SDS-resistant dimer on SDS-PAGE
[2] = target: YgaM (N-terminal Xpress-His6-tag) (E. coli) (UniProt P0ADQ7); test: SDS-resistant dimer on SDS-PAGE
tag-free YqjD (E. coli) = tag-free YqjD (E. coli) (UniProt P64581); test: SDS-resistant dimer on SDS-PAGE

binding (ΔTM-YqjD (E. coli)): no binding
B1: ΔTM-YqjD (domain or fragment, UniProt P64581 1-83)
chain: MSKEHTTEHLRAELKSLSDTLEEVLSSSGEKSKEELSKIRSKAEQALKQSRYRLGETGDAIAKQTRVAAARADEYVRENPWTG

binding [1]: binds
B2: ElaB (N-terminal Xpress-His6-tag) (protein, UniProt P0AEH5 1-101)
chain: MSNQFGDTRIDDDLTLLSETLEEVLRSSGDPADQKYVELKARAEKALDDVKKRVSQASDSYYYRAKQAVYRADDYVHEKPWQGIGVGAAVGLVLGLLLARR

binding [2]: binds
B3: YgaM (N-terminal Xpress-His6-tag) (protein, UniProt P0ADQ7 1-109)
chain: MFNRPNRNDVDDGVQDIQNDVNQLADSLESVLKSWGSDAKGEAEAARSKAQALLKETRARMHGRTRVQQAARDAVGCADSFVRERPWCSVGTAAAVGIFIGALLSMRKS

binding (tag-free YqjD (E. coli)): binds
B4: YqjD (wild type, full-length, N-terminal Xpress-His6-tag) (natural protein, E. coli, UniProt P64581 1-101, looked up)
chain: MSKEHTTEHLRAELKSLSDTLEEVLSSSGEKSKEELSKIRSKAEQALKQSRYRLGETGDAIAKQTRVAAARADEYVRENPWTGVGIGAAIGVVLGVLLSRR
